# Reference: article PMC7819943, “Rice protein-binding microarrays: a tool to detect cis-acting elements near promoter regions in rice”
# The other results are listed elsewhere or left out.
# Biological target: T1, OsSMF1 (Oryza sativa, UniProt Q6ZLB0 1-436)
# T1 sequence: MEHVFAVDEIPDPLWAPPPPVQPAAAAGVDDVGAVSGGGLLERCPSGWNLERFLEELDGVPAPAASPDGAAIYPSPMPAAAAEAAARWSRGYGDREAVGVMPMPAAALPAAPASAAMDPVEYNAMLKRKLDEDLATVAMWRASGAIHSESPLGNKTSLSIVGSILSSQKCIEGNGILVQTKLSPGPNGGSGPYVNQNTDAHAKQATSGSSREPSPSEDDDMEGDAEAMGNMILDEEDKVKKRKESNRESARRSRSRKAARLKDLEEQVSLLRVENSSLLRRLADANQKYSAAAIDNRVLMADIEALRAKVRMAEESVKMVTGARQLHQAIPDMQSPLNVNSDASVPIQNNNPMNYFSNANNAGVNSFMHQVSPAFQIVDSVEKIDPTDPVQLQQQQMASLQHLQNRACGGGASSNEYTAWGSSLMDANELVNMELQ
# Assay: protein-binding microarray (RPBM); PBS, 2% BSA, 51.3 ng/ul salmon testes DNA, 50 uM zinc acetate, 200 nM TF, 25 C, 1 h; high values mean tight binding
# Conditions: protein: recombinant; tags: N-terminal polyhistidine and DsRed monomer fusion (pET32a); chain copies: 2; label: CyDye5-dUTP incorporated in the synthesized complementary strand; 3' TTTTT single-stranded linker to array surface; dsDNA, one strand shown
# Method in brief: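 Ni–NTA purification followed expression in E. coli BL21-CodonPlus of transcription factors fused N-terminally to a polyhistidine tag and DsRed. At 200 nM in PBS with 2% BSA, salmon testes DNA and 50 µM zinc acetate, the protein was incubated for 1 h at 25 °C with a custom Agilent array that had been primer-extended with Cy5-dUTP and blocked with 2% BSA. After washing, the array was read on an Axon 4000B scanner. The binding signal is per-feature fluorescence intensity in arbitrary units.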
row,Sequence,binding signal
1,GCCCATCTCTACGCCAATCCAACGTGCACGCCACCATGTGCGGAGTCACCTAGTGCAG,4280 fluorescence intensity (a.u.)
2,AGGGGTCGTCGTCATCGCCAGCGTGGCACGCCTTCCAGCCCGGAGTCACCTAGTGCAG,9200 fluorescence intensity (a.u.)
3,ATAATTTGGTGGGCGCACCACTAACGTGTATATTTAGTGACGGAGTCACCTAGTGCAG,4090 fluorescence intensity (a.u.)
4,CCTGCATTTTCAGTAATCTGAACATGACAACATACTTGTGCGGAGTCACCTAGTGCAG,3200 fluorescence intensity (a.u.)
5,GTACGAGTCATGACGGCCAGCTCATCTTATCTTAAAACAACGGAGTCACCTAGTGCAG,3510 fluorescence intensity (a.u.)
6,CACTGTACATGGTCAAATATAATTTCGTGTCAGTCACCTTCGGAGTCACCTAGTGCAG,4150 fluorescence intensity (a.u.)
7,GCCGGCCGCGCGCCGCCGCCGACCACGCGTCCATGAACCGCGGAGTCACCTAGTGCAG,3550 fluorescence intensity (a.u.)
8,AAGAGGGAGAATGAATGGTTAGAGTTTAAATGTGTCTTTTCGGAGTCACCTAGTGCAG,22400 fluorescence intensity (a.u.)
9,CGGTCGACCCGCCGTCTGCCACGTCAGCTTGCCGCCCCAGCGGAGTCACCTAGTGCAG,22500 fluorescence intensity (a.u.)
10,AAAACGGCCTCCCCTAATCTTGCGTGTCCGGCCAATTGCACGGAGTCACCTAGTGCAG,4660 fluorescence intensity (a.u.)
11,TAAACAAACACAGTTGACATGTGTTCCTGTCATGCAGGCCCGGAGTCACCTAGTGCAG,4050 fluorescence intensity (a.u.)
12,GAACCCTCACTCTGTGCGTCTACTTGGCAAGGGGCTCGTGCGGAGTCACCTAGTGCAG,3260 fluorescence intensity (a.u.)
13,AGGCTCCTACTGTGATATATTAATATATAATAAAGAACAACGGAGTCACCTAGTGCAG,13000 fluorescence intensity (a.u.)
14,ACTGTAATAGTGTCATACTATGATGGGATTACATTGGACGCGGAGTCACCTAGTGCAG,3300 fluorescence intensity (a.u.)
15,GTGGGGCCTGGCTGCGATGTGTCGATGTGACAGCAACAGCCGGAGTCACCTAGTGCAG,3380 fluorescence intensity (a.u.)
16,GAGAGGCTGATCCGGTCGTCCCTGCGCATCAGCGTGGGCGCGGAGTCACCTAGTGCAG,3200 fluorescence intensity (a.u.)
17,GTCTGCAACACGAAATGTAATGTTGACACGCAAATGCTAGCGGAGTCACCTAGTGCAG,3420 fluorescence intensity (a.u.)
18,ACAACCCCACCACGTGGCGTAAATACACGTCGAGGCGAGGCGGAGTCACCTAGTGCAG,12500 fluorescence intensity (a.u.)
19,CCACATGTCATTGTCACCTCCTAATTAACCCCGAAGGCAACGGAGTCACCTAGTGCAG,3490 fluorescence intensity (a.u.)
20,GGCAGTTTAACTAGATATTTAAAACTCTGCTATATATACGCGGAGTCACCTAGTGCAG,23700 fluorescence intensity (a.u.)
21,GCGCCCATCCCTCGTCGGCTCGTCGCTGAATCTGATGGATCGGAGTCACCTAGTGCAG,3300 fluorescence intensity (a.u.)
22,GCAAGATAATACACCACCTGTCAGTCATAGCTGTCCCCAGCGGAGTCACCTAGTGCAG,3520 fluorescence intensity (a.u.)
23,GGAAAGTGGACAATTAAATCAAGCGATGATGTGGATGTGGCGGAGTCACCTAGTGCAG,5830 fluorescence intensity (a.u.)
24,AGAGGGAGGAGGAAGAAGGTCTGACATGTGGGCCCCACATCGGAGTCACCTAGTGCAG,3230 fluorescence intensity (a.u.)
25,CATGGCAGCAGCATTCTTTCGTTTTCGTGCAGCATTGTCACGGAGTCACCTAGTGCAG,28300 fluorescence intensity (a.u.)
26,AGTATCTCGAAACAAAGAGAGTAACATACATAATCATCCTCGGAGTCACCTAGTGCAG,28300 fluorescence intensity (a.u.)
27,AGAGACCATGAAAGACTTAGCCACGACATCGTCCAACATGCGGAGTCACCTAGTGCAG,4620 fluorescence intensity (a.u.)

# Nothing new here: entries from further up.
row,Sequence,binding signal
20,GGCAGTTTAACTAGATATTTAAAACTCTGCTATATATACGCGGAGTCACCTAGTGCAG,23700 fluorescence intensity (a.u.)
21,GCGCCCATCCCTCGTCGGCTCGTCGCTGAATCTGATGGATCGGAGTCACCTAGTGCAG,3300 fluorescence intensity (a.u.)

# The listing continues.

row,Sequence,binding signal
1,GCTCCGCCGGTTCGCCTTCGACAGCATCTGCCACGTCGCGCGGAGTCACCTAGTGCAG,9720 fluorescence intensity (a.u.)
2,TCATTGCCGTGGTCCACGCGTCGCACGACTGAGTACCGTGCGGAGTCACCTAGTGCAG,4850 fluorescence intensity (a.u.)
3,TCTCCGAGAGGATTAGGCAATGACCGGGGAGAAGCAACGCCGGAGTCACCTAGTGCAG,3450 fluorescence intensity (a.u.)
4,GCGCTATATATACGCACGGCTAGTCAGCCTCCTGTGCCACCGGAGTCACCTAGTGCAG,3800 fluorescence intensity (a.u.)
5,GCATGTTCAGGTCGAAGCACGCCACGCAGCCGTGGCAGACCGGAGTCACCTAGTGCAG,6240 fluorescence intensity (a.u.)
6,GGCTTCTCCGGCGCCGCGACACGGACACCGAGGCGACGGCCGGAGTCACCTAGTGCAG,3170 fluorescence intensity (a.u.)
7,TCTTTAGTCCCGGTTCCTATTTAAACCGGGATTATTGTGGCGGAGTCACCTAGTGCAG,47900 fluorescence intensity (a.u.)
8,CTTCGTATGGTTCAAATCCTCTGCCTTAATGACACCACTGCGGAGTCACCTAGTGCAG,3160 fluorescence intensity (a.u.)
9,CCGCGTCTCTGCGACGCGCGTGGCGCCACGAAGCGCTCCCCGGAGTCACCTAGTGCAG,4660 fluorescence intensity (a.u.)
10,ACAGAGGACCTCACTCCTTCTCAAGTATCATCATGTATCACGGAGTCACCTAGTGCAG,3370 fluorescence intensity (a.u.)
11,AAGAAGTACGTCATATATTCAGTTTTATGTATTATTTTATCGGAGTCACCTAGTGCAG,3310 fluorescence intensity (a.u.)
12,TTAACACTCCCAATATTTTAGCACTACCCCGAAATTTCCGCGGAGTCACCTAGTGCAG,8040 fluorescence intensity (a.u.)
13,TGGCGCAGTCGCCCGTGACGCGCGGCCGCTGCCGTCGAAGCGGAGTCACCTAGTGCAG,3320 fluorescence intensity (a.u.)
14,CGGCCTTTTCCCCGGCCCCTTCGGGGAAGCCCACCACGTGCGGAGTCACCTAGTGCAG,3570 fluorescence intensity (a.u.)
15,TGTTAATTCCACATCAGCGCTACGTCAATGCCACGTGGTACGGAGTCACCTAGTGCAG,27900 fluorescence intensity (a.u.)
16,CACACCCAACACTCCACACAAGTCAGCTCAGTGACCGCCACGGAGTCACCTAGTGCAG,4300 fluorescence intensity (a.u.)
17,GGAGGGGTGCTTACGTGAGTCGACGACCATGCGGTAGGAGCGGAGTCACCTAGTGCAG,3910 fluorescence intensity (a.u.)
18,CACCCGCAGCCCGCGCCGCTCCGTTCGCAGCGCTCGCCCGCGGAGTCACCTAGTGCAG,21700 fluorescence intensity (a.u.)
19,GCAGCTTTGATCATTTCAATCAGGTGATTCAGACCAAAGTCGGAGTCACCTAGTGCAG,3180 fluorescence intensity (a.u.)
20,CAATATAATTTTCTTTTCATACGTGTGATGAGTTTGAAGACGGAGTCACCTAGTGCAG,3620 fluorescence intensity (a.u.)
21,GCATTCTGAAAGCCTACACGTCGATCGATTGCCAAGTCAGCGGAGTCACCTAGTGCAG,9950 fluorescence intensity (a.u.)
22,TTCGCTGACACGCCCCGTCCACTCTTGTCCACGCTGCGCCCGGAGTCACCTAGTGCAG,3380 fluorescence intensity (a.u.)
23,CCGAATCAGCTGCTGACGTATCGCCTCCGCCATTACCACCCGGAGTCACCTAGTGCAG,10600 fluorescence intensity (a.u.)
24,CCCATGGCGTAAGCCCTCCTGCATAGCTGGCGTCTTTACCCGGAGTCACCTAGTGCAG,5640 fluorescence intensity (a.u.)
25,TGCGAGGTCTGCCCAAGTCCACGTTCATTGATTGGTTAACCGGAGTCACCTAGTGCAG,3340 fluorescence intensity (a.u.)
26,CACGTAAGCGTCACGTCAATGCCACGTGGGACGGTGACCTCGGAGTCACCTAGTGCAG,27900 fluorescence intensity (a.u.)
27,GGGCTTCTCCAGGTTTACGGTTAAGGGATGAGTCAGATTCCGGAGTCACCTAGTGCAG,7310 fluorescence intensity (a.u.)
